According to the supplement of paper PMC8256030:
“And” between values parts separate entries of the source, which are not always exact repeats. Identical values can stand only once. The list shows a part of the results. Single values are uncertain here, since repeats match poorly.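 HEK293T cells were given each compound shortly before transfection with a reporter in which red mCherry is followed by the SARS-CoV-2 frameshift element and then GFP in the −1 frame, so GFP appears only after frameshifting.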

Columns and labels:
HEK293T = assay: percent viability (nuclei count) relative to control; higher = more viable cells; settings: 10 µM; 24 h
[1] = tested on: SARS-CoV-2 -1 PRF reporter mCherry-FSE-GFP(-1); assay: mCherry (red) intensity as percent of control; higher = higher upstream reporter expression; settings: 10 µM; 24 h; HEK293T
[2] = tested on: SARS-CoV-2 -1 PRF reporter mCherry-FSE-GFP(-1); assay: percent effect, decrease of GFP/mCherry ratio (-1 PRF reporter) relative to controls; higher = stronger frameshift inhibition; settings: 10 µM; 24 h; HEK293T

SMILES | percent viability (HEK293T) | mCherry [1] | percent effect [2]
O=c1n(Cl)c(=O)n(Cl)c(=O)n1Cl [symclosene] | 225% | 79.2% | -1.92%
CNC(=O)NC(O)C(Cl)(Cl)Cl (stereo unspecified) [mecloralurea] | 198% | 142% | -0.517%
CN1C(=O)[C@@H](NC(=O)c2cc3ccccc3[nH]2)N=C(c2ccccc2)c2ccccc21 [devazepide] | 159% | 34.4% | -11.1%
C=C(C)[C@H]1CN[C@H](C(=O)O)[C@H]1CC(=O)O [kainic acid] | 127% | 87.3% | -2.73%
O=C(CCCN1CCC(n2c(=O)[nH]c3ccccc32)CC1)c1ccc(F)cc1 [benperidol] | 208% | 84.3% | -1.46%
CN(C)C(=O)Oc1ccc[n+](C)c1 [pyridostigmine bromide] | 177% | 124% | 3.54%
CC(C)(C)NCC(O)c1cc(Cl)c(N)c(Cl)c1 (stereo unspecified) [clenbuterol] | 186% and 315% | 110% and 91% | 0.528% and -0.775%
COc1ccc2c3c1O[C@H]1C(=O)CC[C@@]4(O)[C@@H](C2)N(C)CC[C@]314 [oxycodone] | 255% | 97.7% | 1.34%
C#CC1(OC(N)=O)CCCCC1 [ethinamate] | 161% | 101% | -1.3%
CCN1CCCC1CNC(=O)C(O)(c1ccccc1)c1ccccc1 (stereo unspecified) [epicainide] | 15.6% | 37% | -8.89%
CCC1(CC)C(=O)NCC(C)C1=O (stereo unspecified) [methyprylon] | 78.4% | 116% | 0.92%
C=C/C=C\CC1=C(C)[C@@H](OC(=O)[C@@H]2[C@@H](C=C(C)C)C2(C)C)CC1=O | 162% | 104% | -4.57%
CC[C@H]1[C@@H]2C[C@H]3[C@@H]4N(C)c5ccccc5[C@]45C[C@@H]([C@@H]2[C@H]5O)N3[C@@H]1O [Ajmaline] | 263% | 76.5% | -5.37%
CC[C@H]1CCC[C@H](O[C@H]2CC[C@H](N(C)C)[C@@H](C)O2)[C@@H](C)C(=O)C2=C[C@@H]3[C@@H](C=C(C)[C@@H]4C[C@@H](O[C@@H]5O[C@@H](C)[C@H](OC)[C@@H](OC)[C@H]5OC)C[C@@H]34)[C@@H]2CC(=O)O1.CC[C@H]1CCC[C@H](O[C@H]2CC[C@H](N(C)C)[C@@H](C)O2)[C@@H](C)C(=O)C2=C[C@H]3[C@@H]4C[C@H](O[C@@H]5O[C@@H](C)[C@H](OC)[C@@H](OC)[C@H]5OC)C[C@H]4C=C[C@H]3C2CC(=O)O1 [Spinosad] | 321% | 88.8% | -5.28%
NC1CCCC1c1ccccc1 (stereo unspecified) [cypenamine] | 223% | 102% | -0.288%
C[C@]12CC[C@H]3[C@@H](CCC4=CC(=O)CC[C@@]43C)[C@@H]1CC[C@@H]2O[Si](C)(C)C [silandrone] | 106% | 86.3% | -3.91%
CN1C(=O)COc2c(C(=O)NC3CN4CCC3CC4)cc(Cl)cc21 (stereo unspecified) [azasetron] | 66.7% | 95.5% | -0.48%
O=[N+]([O-])c1cc([As](=O)(O)O)ccc1O [roxarsone] | 184% | 105% | -0.0383%
C=CC[C@]1(O)CC[C@H]2[C@@H]3CCC4=CC(=O)CCC4=C3C=C[C@@]21C [altrenogest] | 175% | 86.4% | -0.236%
O=C1NCN(c2ccccc2)C12CCN(CC1COc3ccccc3O1)CC2 (stereo unspecified) [spiroxatrine] | 146% | 93.9% | -4.62%
C=CC[C@]1(O)CC[C@H]2[C@@H]3CCC4=CCCC[C@@H]4[C@H]3CC[C@@]21C [allylestrenol] | 213% | 111% | -2.86%
Cc1cccc(C)c1NC(=O)CN1CCCC1=O [nefiracetam] | 101% | 67.8% | -3.17%
CCC(C(N)=O)N1CCCC1=O (stereo unspecified) [etiracetam] | 208% | 95% | -3.69%
C[N+]1(C)[C@@H]2C[C@@H](OC(=O)[C@H](CO)c3ccccc3)C[C@H]1[C@@H]1O[C@@H]12 | 185% | 66.9% | -2.07%
CCC(CC)COC(C(=O)OCCN(C)C)(c1ccccc1)c1ccccc1 [denaverine] | 362% | 39% | -0.314%
C[C@]1(O)CC[C@H]2[C@@H]3CC[C@@]45O[C@]4(C)C(O)=C(C#N)C[C@]5(C)[C@H]3CC[C@@]21C [epostane] | 160% | 73.7% | -0.25%

SMILES | percent viability (HEK293T) | mCherry [1] | percent effect [2]
CC#C[C@]1(O)CC[C@H]2[C@@H]3C[C@H](C)C4=CC(=O)CC[C@]4(C)[C@H]3CC[C@@]21C [dimethisterone] | 150% | 72.8% | 0.773%
C[C@]12CCC(=O)C=C1C=C[C@@H]1[C@@H]2CC[C@@]2(C)[C@H]1CC[C@@]2(O)CCC(=O)O [canrenoic acid] | 124% | 72.1% | 0.0109%
CCOP(=S)(OCC)Oc1nc(Cl)c(Cl)cc1Cl | 21.3% | 52.8% | -1.17%
CCCCC(C#N)(Cn1cncn1)c1ccc(Cl)cc1 (stereo unspecified) [Myclobutanil] | 179% | 54.9% | -4.76%
NCC1(CC(=O)O)CCCCC1 [gabapentin] | 225% | 93.7% | 1.28%
CCC1(c2ccccc2)C(=O)NC(=O)NC1=O [phenobarbital] | 274% and 142% | 90.5% and 88.4% | -6.33% and -2.28%
OC[C@@H](O)[C@H]1O[C@@H]2O[C@H](C(Cl)(Cl)Cl)O[C@@H]2[C@H]1O [chloralose] | 142% | 102% | -1.6%
Cc1nnc2n1-c1sc(Br)cc1C(c1ccccc1Cl)=NC2 [brotizolam] | 20.9% | 107% | -15.5%
CCN(C)C(=O)Oc1cccc([C@H](C)N(C)C)c1 [rivastigmine] | 233% and 141% | 92.7% and 113% | -5.2% and 0.688%
CCCC(C)C1(CC)C(=O)NC(=S)NC1=O (stereo unspecified) | 118% | 100% | 1.34%
CCNC1=Nc2ccc(Cl)cc2C(C)(c2ccccc2)O1 (stereo unspecified) [etifoxine] | 81.8% | 86.8% | -6.56%
NC(=O)c1cc([N+](=O)[O-])cc([N+](=O)[O-])c1 | 137% | 118% | -8.19%
CN(C)C(=S)SSC(=S)N(C)C [thiram] | 141% | 73.5% | -12.5%
Cn1cc(C(=O)c2cccc3ccccc23)cc1C(=O)O [napirimus] | 152% | 94.3% | -3.01%
COc1ccc2c(c1OC)C(=O)O[C@@H]2[C@H]1c2cc3c(cc2CCN1C)OCO3 | 174% | 105% | -10.4%
C=C[C@H]1CN2CC[C@H]1C[C@@H]2[C@@H](O)c1ccnc2ccccc12 | 163% | 123% | 0.526%
Cc1ccccc1-n1c(CF)nc2ccc(N)cc2c1=O [afloqualone] | 176% | 91.1% | 1.09%
Cc1ccccc1-n1c(C)nc2ccccc2c1=O [methaqualone] | 218% | 102% | -1%
COC(=O)C(c1ccccc1)C1CCCCN1 (stereo unspecified) [methylphenidate] | 319% and 226% | 97.3% and 106% | -0.76% and -1.77%
CC(N)Cc1ccc(O)cc1 (stereo unspecified) | 279% | 86.2% | -1.67%
CCCC(C)C1(CC)C(=O)NC(=S)NC1=O (stereo unspecified) [thiopental sodium] | 107% | 100% | -4.86%
O=C1CCCCC1CN1CCCCC1 (stereo unspecified) [pimeclone] | 125% | 77.8% | 0.763%
CCCC(C)(COC(N)=O)COC(N)=O [meprobamate] | 275% | 119% | 1.73%
OCCN(CCO)CCO [trolamine] | 247% | 56% | 2.93%
C[C@H](N)Cc1cccc(O)c1 [gepefrine] | 265% | 96.5% | -6.01%
CC(C)NCC(O)c1ccccc1Cl (stereo unspecified) [clorprenaline] | 132% | 73.4% | -2.14%
